Here are results for one molecule from patent US20240376639A1 (ELASMOGEN, published 2024).

By UniProt entry, the sequences of proteins in these tests, tags left out. Residues count along the entry.
UniProt Q01973, residues 30-403: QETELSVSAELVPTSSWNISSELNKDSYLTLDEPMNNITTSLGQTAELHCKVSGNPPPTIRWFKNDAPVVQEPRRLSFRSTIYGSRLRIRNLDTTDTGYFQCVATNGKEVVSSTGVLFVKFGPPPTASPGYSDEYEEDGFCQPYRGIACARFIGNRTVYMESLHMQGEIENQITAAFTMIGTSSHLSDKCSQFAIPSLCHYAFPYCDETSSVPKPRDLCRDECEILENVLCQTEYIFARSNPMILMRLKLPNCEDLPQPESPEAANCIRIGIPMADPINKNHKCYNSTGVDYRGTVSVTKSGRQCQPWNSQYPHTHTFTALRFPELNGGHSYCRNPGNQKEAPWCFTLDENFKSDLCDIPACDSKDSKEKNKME

Results are given in words; binding and its absence hold for the method and conditions named. Some results given as binding are weak or reduced against the parent protein; the word gives no strength.

The target of the assay is T1, human ROR1 (human, UniProt Q01973 30-403, limits assumed).
T1 construct: The general ELISA protocol coats hROR1-Fc; also called hROR1; huROR1
In words: BLI against hROR1.

B1: D3 V2 (VNAR)
VNAR: ASVNQSPSSLSASVGDRVTITCVLTDTSYGLYSTSWFRKNPGTTDWERMSIGGRYVESVNKRAKSFTLTISSLQPEDFATYYCKAQSGMAISTGSGHGYNWYDGAGTKVEIK
notes: Humanised VNAR (soloMER)
With B1, the binding result was “binds”.
